According to article PMC5996148:
Values joined by “and” are separate entries in the source; they are usually repeats but may differ in a detail not shown here. Equal entries are not always repeated. The list shows a part of the results. For some assays here: The exact form of the protein is not confirmed.

Sequences of proteins named here, by UniProt entry; tags and fusion partners are left off.
UniProt Q9GZZ9, whole entry: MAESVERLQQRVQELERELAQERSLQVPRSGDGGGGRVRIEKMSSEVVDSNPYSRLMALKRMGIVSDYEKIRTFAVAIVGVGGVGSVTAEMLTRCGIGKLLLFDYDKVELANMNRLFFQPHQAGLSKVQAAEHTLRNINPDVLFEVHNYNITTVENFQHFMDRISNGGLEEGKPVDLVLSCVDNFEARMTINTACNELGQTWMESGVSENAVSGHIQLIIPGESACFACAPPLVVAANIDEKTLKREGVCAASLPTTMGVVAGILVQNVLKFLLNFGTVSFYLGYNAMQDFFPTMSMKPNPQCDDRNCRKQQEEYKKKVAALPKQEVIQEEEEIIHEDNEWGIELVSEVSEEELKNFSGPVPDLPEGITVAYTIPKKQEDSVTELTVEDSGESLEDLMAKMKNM

How the values were obtained:
Assay in all cases: protein microarray (ProtoArray v5.0), streptavidin-Alexa Fluor 647
Conditions in all cases: 3'-biotin; 20 mM Tris (pH 7.5), 5 mM MgCl2, 100 mM KCl, 0.1% Tween-20, A/T-rich and random oligonucleotide blockers; temperature not stated; high values mean tight binding
[1] = system: Tumor protein D53 (human)
[2] = system: Tumor suppressor candidate 3 (human)
UBADC1 (human) = system: UBADC1 (human)
UBE1DC1 = UBE1DC1 (UniProt Q9GZZ9)
UBE1L2 (human) = system: UBE1L2 (human)
UBE2C (human) = system: UBE2C (human)
UBE2L6 (human) = system: UBE2L6 (human)
UBE2Z (human) = system: UBE2Z (human)
UBE3C (human) = system: UBE3C (human)
UBL4A (human) = system: UBL4A (human)
UBQLN1 (human) = system: UBQLN1 (human)
UBQLN2 (human) = system: UBQLN2 (human)
UBTD2 (human) = system: UBTD2 (human)
[3] = system: UBX domain-containing protein 7 (human)
UCHL1 (human) = system: UCHL1 (human)
UCHL3 (human) = system: UCHL3 (human)
UCHL5 (human) = system: UCHL5 (human)
UGP2 (human) = system: UGP2 (human)
ULK4 (human) = system: ULK4 (human)
UMPS (human) = system: UMPS (human)

## GGTGACAGGGGTATGGGGAGGGG [G4-2 biotinylated (Ct1)]
[1]
  binding signal: -0.378 z-score
[2]
  binding signal: -0.372 z-score
UBADC1 (human)
  binding signal: -0.39 z-score
UBE1DC1
  binding signal: -0.394 z-score
UBE1L2 (human)
  binding signal: -0.374 z-score
UBE2C (human)
  binding signal: -0.409 z-score and -0.4 z-score
UBE2L6 (human)
  binding signal: -0.384 z-score
UBE2Z (human)
  binding signal: -0.367 z-score
UBE3C (human)
  binding signal: -0.37 z-score
UBL4A (human)
  binding signal: -0.393 z-score
UBQLN1 (human)
  binding signal: -0.399 z-score
UBQLN2 (human)
  binding signal: -0.402 z-score
UBTD2 (human)
  binding signal: -0.383 z-score
[3]
  binding signal: -0.396 z-score
UCHL1 (human)
  binding signal: -0.389 z-score
UCHL3 (human)
  binding signal: -0.396 z-score
UCHL5 (human)
  binding signal: -0.399 z-score and -0.382 z-score
UGP2 (human)
  binding signal: -0.39 z-score
ULK4 (human)
  binding signal: -0.357 z-score
UMPS (human)
  binding signal: -0.375 z-score
